# From PubChem BioAssay AID2685 (National Center for Advancing Translational Sciences (NCATS), 2010)
# Some of the results follow. Further columns of the screen follow, without active or inactive calls. The list favours compounds with an active or inconclusive main result. The note in brackets gives the kind of curve behind each potency; many fits are weak.
# Experiment: qHTS Assay for Lipid Storage Modulators in Drosophila S3 Cells;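 on cell number change: cells counted by Cell Tracker Red CMTPX staining in the red channel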
# Conditions: BODIPY lipid droplet fluorescence, 18-24 h; for cell number change: measured here: cell count max response, cells fed with added oleic acid
# In short: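 Drosophila S3 cells loaded with oleic acid (400 uM, as added) and compounds at several concentrations; lipid droplets imaged by 488-nm laser-scanning cytometry, 500–530 nm intensity and object ratio to cell channel. Percent activity normalized to 20 uM Triacsin C.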
# [1] = measured here: cell number channel AC50, cells fed with added oleic acid
# [2] = measured here: lipid fluorescence (Fed channel) AC50, cells fed with added oleic acid
Compound,AC50 [1],AC50 [2],cell number change [%]
Cc1cccc2cc(CN(CC3CCCO3)C(=O)c3cnccn3)c(=O)[nH]c12 (centres undefined),"1.64 µM [rising, partial curve]","0.517 µM [rising, full curve]",–
O=C(c1ccoc1)N1CCC2(CC1)Oc1ccc(F)cc1C(=O)C21CC(c2ccccc2)=NO1 (centres undefined),–,"3.66 µM [rising, full curve]",13.2
CCOC(=O)C1CCN(C(=O)c2ccc(Br)o2)CC1,"0.58 µM [falling, single point]","0.58 µM [falling, single point]",–
CC1Cc2ccccc2N1C(=O)CSc1nnc(-c2ccc(S(=O)(=O)N3CCCCC3)cc2)o1 (centres undefined),"6.51 µM [falling, single point]","0.58 µM [falling, single point]",-23.8
COc1cccc(-n2nnnc2SCC(=O)NCCc2ccc(OC)c(OC)c2)c1,"14.6 µM [falling, partial curve, poor fit]","3.66 µM [falling, partial curve]",-50.6
CC(C)(C)c1ccc(NS(=O)(=O)c2ccc(N)cc2)cc1,"23.1 µM [falling, single point]","20.6 µM [falling, partial curve, poor fit]",-35.6
CCSc1nc(-c2ccccc2)c(-c2ccccc2)n1CC(O)CO (centres undefined),"23.1 µM [falling, partial curve]","23.1 µM [falling, partial curve]",-102
Cc1ccc(NC(=O)C2C3CCC(O3)C2C(=O)O)cc1Cl (centres undefined),–,"29.1 µM [rising, single point]",-1.59
CCNc1ccccc1C(=O)O,–,"3.26 µM [falling, full curve, poor fit]",-12.4
COc1ccc(Nc2cc(C)nc3ncnn23)cc1Cl,"16.4 µM [falling, partial curve, poor fit]",–,-48.4
N#Cc1cc(C(=O)Cc2ccccc2)c[nH]1,–,"0.731 µM [rising, single point]",-22.4
Cc1ccc(OCC(=O)NC(=S)Nc2ccc(S(=O)(=O)Nc3cc(C)on3)cc2)c(Br)c1,–,"32.6 µM [falling, single point]",-14
Clc1c(-c2ccccc2)nc2ccccn12,"0.13 µM [rising, full curve, poor fit]","29.1 µM [falling, single point]",28.1
CN(C)CCCN1C(=O)C(=O)/C(=C(/O)c2ccccc2)C1c1ccccn1 (centres undefined),–,"0.259 µM [falling, full curve]",-3.77
C=CCc1cccc2cc(C(=O)NC3CCCC3)c(=O)oc12,"8.2 µM [rising, partial curve]","16.4 µM [rising, partial curve]",66.9
O=C(NCc1ccccc1)c1ccc(-c2ccc(F)cc2)o1,"0.92 µM [rising, full curve, poor fit]","10.3 µM [rising, partial curve]",21.5
CC(C)CCN1CCC(N)=NC1=O,–,"29.1 µM [rising, single point]",39.4

# Quoted at random: 2 entries already listed.
Compound,AC50 [1],AC50 [2],cell number change [%]
Cc1ccc(OCC(=O)NC(=S)Nc2ccc(S(=O)(=O)Nc3cc(C)on3)cc2)c(Br)c1,–,"32.6 µM [falling, single point]",-14
O=C(c1ccoc1)N1CCC2(CC1)Oc1ccc(F)cc1C(=O)C21CC(c2ccccc2)=NO1 (centres undefined),–,"3.66 µM [rising, full curve]",13.2

# (more compounds)

Compound,AC50 [1],AC50 [2],cell number change [%]
O=C(Nc1ccc(Cl)cc1)c1ccncc1,"0.731 µM [rising, single point]",–,-5.99
COCC(=O)n1nc(-c2ccccc2)nc1NCc1cccs1,"0.13 µM [rising, full curve, poor fit]","0.0116 µM [rising, full curve]",21.1
Cc1cccc(NC(=O)CN2CCN(CC(=O)NCc3ccc(Cl)cc3Cl)CC2)c1C,–,–,15.6
O=C(NCC1CCCO1)c1ccc(CS(=O)(=O)c2ccc(Cl)cc2)o1 (centres undefined),–,–,19.9
Cc1sc2ncnc(NC(C)C(=O)O)c2c1C (centres undefined),–,"29.1 µM [rising, single point]",–
O=C(CS(=O)(=O)c1ccccc1)N1CCCCCC1,–,"29.1 µM [falling, single point]",–
Cc1ccc(S(=O)(=O)c2c(COC(=O)c3cccc(Cl)c3)c(-c3ccccc3)nn2C)cc1,"3.26 µM [rising, partial curve]","4.61 µM [rising, partial curve]",–
CCOC(=O)C1=C(COC(=O)/C=C/c2ccc(OC)c(OC)c2)NC(=O)NC1C (centres undefined),"2.06 µM [rising, partial curve]","1.46 µM [falling, partial curve, poor fit]",–
Clc1cccc(/C=N/Nc2ncnc3ccccc23)c1,"6.51 µM [falling, single point]",–,-37.2
COc1cccc(NC(=O)c2ocnc2C)c1,–,"0.13 µM [falling, full curve, poor fit]",-8.71
COc1ccc(N2CC(C(=O)Nc3ccccc3C(=O)NC3CC3)CC2=O)cc1 (centres undefined),–,"29.1 µM [rising, single point]",-20.8
Cc1cc(C)n(-c2cc(N3CCN(C(=O)c4cccc(F)c4)CC3)ccc2[N+](=O)[O-])n1,"14.6 µM [falling, partial curve, poor fit]","10.3 µM [falling, partial curve, poor fit]",-45.9
CCC1(CC)NC(=O)N(CC(=O)OCC(=O)Nc2ccccc2OC(F)F)C1=O,–,"0.326 µM [rising, partial curve, poor fit]",7.29
O=C(c1ccc(N2CCOCC2)cc1)c1cccs1,"3.66 µM [rising, partial curve]","0.58 µM [rising, single point]",–
CC(C)CNS(=O)(=O)c1ccc(CCC(=O)N2CCN(Cc3ccc4c(c3)OCO4)CC2)cc1,"8.2 µM [falling, partial curve, poor fit]","14.6 µM [falling, partial curve, poor fit]",-33.7
CN1CCCC(OC(=O)c2ccc(C#N)cc2)C1 (centres undefined),–,–,-2.01
O=C(Nc1ccc(-c2noc(COc3ccccc3Cl)n2)cc1)c1ccco1,"29.1 µM [falling, single point]","29.1 µM [falling, single point]",-55.5
